{"sequences": {"note": "Sequences of proteins named here, by UniProt entry; tags and fusion partners are left off. Residues count along the entry.", "UniProt P78352, residues 426-721": "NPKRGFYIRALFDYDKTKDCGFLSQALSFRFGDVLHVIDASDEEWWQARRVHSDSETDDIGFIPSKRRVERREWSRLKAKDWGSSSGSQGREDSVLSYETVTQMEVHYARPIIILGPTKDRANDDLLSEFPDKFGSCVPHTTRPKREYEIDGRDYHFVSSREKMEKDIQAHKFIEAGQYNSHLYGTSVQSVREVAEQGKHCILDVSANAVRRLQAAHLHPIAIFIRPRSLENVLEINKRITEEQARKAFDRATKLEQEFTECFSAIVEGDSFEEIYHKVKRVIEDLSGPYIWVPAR"}, "source": "paper PMC10611757", "biological_target": "PSD-95_SH3-GK (truncated construct of PSD-95 containing the SH3 and guanylate kinase (GK) domain) (UniProt P78352)", "test": "NMR titration; competition: pDLS titrated into 20 µM 15N-labelled Tau with 120 µM PSD-95_SH3-GK (Tau:PSD-95_SH3GK:pDLS 1:6:6 and 1:6:12); 1H-15N HSQC, 278 K, 50 mM sodium phosphate, pH 6.8, 100 mM Na2SO4, 1 mM DTT; both purified", "note": "No constants are given. Whether binding was seen depends on the method and setting. Some binding calls cover weakened binding; strength is not graded here.", "data": [{"binder": "RIRRESYRRANGQSFDLS (phosphoserine at position 6 ((p)S); acetylated N-terminus; amidated C-terminus)", "note": "[pDLS peptide]", "values": [{"measurement": "binding", "result": "binds"}]}]}
